Data taken from PubChem BioAssay AID1347426 (Functional Genomics Laboratory (NCATS/FGL), 2020).
Among all 31,000 sequences or so, about 1,400 (4.5%) were called active.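 Rule for the calls: active = median seed-adjusted z-score above 1 or below -1; inactive = the rest.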 This is one part of the list.

assay: Novel Modifiers of Survival Motor Neuron (SMN) Protein: Gene Identification via Genome-wide siRNA Screen; details: HEK293T SMN2-luciferase reporter, siRNA knockdown, 72 h; actives lie on both sides;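 note: luminescence tracks full-length SMN protein made from the SMN2 reporter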
In short: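 Luciferase signal, proportional to full-length SMN made from an SMN2 cDNA reporter in stable HEK293T cells, was read 72 h after siRNA reverse transfection. Values were expressed as MAD scores after non-targeting-control normalization and log10 conversion; seed analysis flagged off-targets.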

Row | Sequence | median seed-adjusted z-score
1 | GGAAUUUCCUAACUCUCCATT against HHIP | inactive: 0
2 | GUCUCCAUGUGGACAAGGATT against CREBZF | inactive: 0.424
3 | CGCUCACUGUUCUUCGGCUTT against RAD9A | inactive: -0.0564
4 | CCCUCAUCAGUAAUGGUCATT against CYP1A1 | inactive: 0.124
5 | GCUUGACUAUGGAAAGAAATT against CTDSPL | inactive: 0.43
6 | GGAGUACUGUGACUACAGATT against SCNN1A | inactive: -0.137
7 | CAGCUAAGCUUGUAGCGAUTT against VPS54 | inactive: -0.128
8 | GAUCUUCUGUUGUCAUGGATT against PPP1CB | inactive: -0.81
9 | CCUUUACCCAGAUUAUGCATT against GRIK1 | inactive: -0.31
10 | CACCCUCCGACUUUCUUUUTT against USP41 | inactive: 0.808
11 | GAAGCAUUAGUUUUACGAATT against PLD5 | inactive: -0.0377
12 | CAUCCUCGAUAGUACUCAATT against LNX1 | inactive: -0.463
13 | GGCCUGUUGCUGUUCAUGATT against SLC37A4 | inactive: -0.00202
14 | GGACUGAUCUGUUCAGCAATT against ELF5 | inactive: -0.45
15 | GACUAACCAUGACCUAUGATT against SLCO1B1 | inactive: 0.127
16 | GACUUUAUCCUGAAGCUUUTT against GNA14 | inactive: 0.363
17 | GGUUUGUGAAAGCAUAUAATT against FMNL2 | inactive: 0.293
18 | GGCUAUGACAGUUCUGUAATT against KCNQ1 | inactive: -0.0525
19 | GUAUCGAAGUGGAGACAAUTT against NELL1 | inactive: -0.466
20 | GCACUGCCUUGUACAACUATT against EARS2 | inactive: 0.0463
21 | CCGUAUGUUUUGCUGCAAATT against ABCC4 | active: -1.66
22 | CCGAUAUCCUCGUGACUGATT against CACNA1A | inactive: -0.467
23 | AAAUGGUAGCGGAAUGUAATT against PMP2 | inactive: 0.00618

Retrieved one by one from the entries so far (3):
Row | Sequence | median seed-adjusted z-score
13 | GGCCUGUUGCUGUUCAUGATT against SLC37A4 | inactive: -0.00202
15 | GACUAACCAUGACCUAUGATT against SLCO1B1 | inactive: 0.127
9 | CCUUUACCCAGAUUAUGCATT against GRIK1 | inactive: -0.31

(cont.)

Row | Sequence | median seed-adjusted z-score
24 | UGAUCUUGGUUGAACUGUATT against USP43 | inactive: 0
25 | GAAAGAACGAGGAGACUUUTT against ATP1B1 | inactive: 0.971
26 | GGACAACAUUAACAUCCGATT against ATAD2B | inactive: 0.0192
27 | AGGGCUUGUUUGACAACUUTT against CHTF18 | inactive: 0.371
28 | CCUAGAUCACAUAACCAUUTT against SLCO1C1 | inactive: 0.071
29 | UCCUCUACCUGGAUCAUAATT against INHBE | inactive: 0.172
30 | CGGCUUCAAAGUCUACGUATT against EXT1 | inactive: 0.489
31 | CGAACUUAAUGGUAAAGAATT against CD2AP | inactive: 0.113
32 | GGCUGGAUGUCAUUGAGAATT against SRGAP3 | inactive: -0.0961
33 | GGAUGUCUUUUGUCCCUGUTT against VN2R1P | inactive: -0.25
34 | GCCUGGAACUAGAGCGCAATT against PRPH | inactive: 0
35 | CUACCAAACCAACUACCUUTT against PRAF2 | inactive: -0.326
36 | GGAAGAAACUUGUGCAGAUTT against PTPN23 | inactive: -0.0473
37 | GCCUCGCAAAUGUAUCUGATT against CD163L1 | inactive: 0.353
38 | GCUGAGCCGUUUGACAACATT against NDUFV3 | inactive: -0.086
39 | GCAGAACGAAUAUAAGUUATT against MLH3 | inactive: 0.228
40 | GGAAGGAACUGACCGACUUTT against FOSL1 | inactive: -0.431
41 | CCCUAUCAUUGGAGAUGUUTT against NR0B2 | inactive: -0.374
42 | GGUUGUUGCUGAUAGAGAATT against DPH5 | inactive: 0
43 | GGUUAUCAAGUAUUACCCATT against TTC15 | inactive: -0.235
44 | GAUUGGUGGUUGGAACAUUTT against ECE2 | inactive: 0.794
45 | GGCCUAGUCUACUUCCUCUTT against MFSD10 | inactive: 0.0116
46 | AGCAAGUUCUUGAAAUUCATT against MRGPRD | inactive: -0.484

Row | Sequence | median seed-adjusted z-score
47 | GAAAGGAUCAGUGUCGAUATT against OCRL | inactive: -0.545
48 | CACCUACUUUGAUAGAGAUTT against HMGCS1 | inactive: 0.0596
49 | GGAUGGGCUCAGAAUGUAATT against HTR7 | inactive: -0.0111
50 | GGCUUUAAGAUCACGCAGATT against SNRPA | active: -2.09
51 | AGAUGCACAUAGUACAUGATT against CA4 | inactive: 0.0549
52 | CCGUUAUCCUGGAAACUGATT against SLC25A29 | inactive: 0.642
53 | GGUGGACACGUCAUUCUGATT against GTPBP5 | inactive: 0.0354
54 | CAAUAAACAUGGAAUACCATT against GABRG3 | inactive: 0
55 | GCUGUAGUGCAGUUCCAGATT against NDOR1 | inactive: 0.328
56 | GAAGAAGGCUGGAAACAGATT against HDAC7 | inactive: -0.41
57 | GCCUCCUACUACUUCCGUUTT against SLC6A8 | inactive: -0.0673
58 | GUACUGUACCUCAUGCAUATT against PDHX | inactive: 0.21
59 | CCGUCUCCAUGAAUGAGAATT against SULT4A1 | inactive: -0.0628
60 | CCAUUGGAUUUAAUGUAGATT against ARL1 | inactive: 0.347
61 | GGGAUAAGCAGAUAGAAGATT against MYST2 | active: -1.46
62 | GGGAGAUUGGCUCUGUGAATT against RAC3 | inactive: 0.477
63 | CGGCGAUGUGGAGUACGUATT against DBP | inactive: -0.115
64 | GCUUUACCACCGUACGAAATT against MST4 | inactive: 0.343
65 | GGAUAUUGGAGUAAUUGGATT against LEPR | inactive: -0.184
66 | CAAUGGAAGCUGUUAAACATT against PSMA1 | inactive: -0.145
67 | CAUCAUCAGUUUUUCGAUUTT against AHCTF1 | inactive: -0.501
68 | GUAUUUGUGACAGGGCAAATT against PTPRC | inactive: 0.197
69 | GGGAUGGAUUGGAUACUGATT against ATAD1 | inactive: -0.544
